Test results taken from the supplement of paper PMC3334620.
In all, about 33,000 sequences were measured (“E-score (-0.5 to 0.5)”: median about -0.0014, highest 2% from about 0.25 on). The list shows a part of the results.

molecular target: T1, Cad1 (UniProt P24813); experiment: PBM E-score (8-mer binding enrichment) (E-score (-0.5 to 0.5)); higher = stronger / more preferred TF binding; settings: protein concentration: 100 nM; construct: GST-full length
T1 sequence: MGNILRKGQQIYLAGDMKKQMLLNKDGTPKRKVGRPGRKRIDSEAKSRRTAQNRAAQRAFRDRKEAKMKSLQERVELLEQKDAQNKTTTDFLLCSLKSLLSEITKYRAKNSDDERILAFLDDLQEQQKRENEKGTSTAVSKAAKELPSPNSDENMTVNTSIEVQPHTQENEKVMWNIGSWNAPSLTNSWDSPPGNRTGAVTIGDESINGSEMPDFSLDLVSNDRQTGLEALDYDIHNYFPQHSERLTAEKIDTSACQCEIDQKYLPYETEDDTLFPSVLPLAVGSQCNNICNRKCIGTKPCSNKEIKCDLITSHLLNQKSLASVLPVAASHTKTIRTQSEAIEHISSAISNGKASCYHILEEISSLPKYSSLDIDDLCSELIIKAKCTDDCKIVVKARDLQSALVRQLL
How it was run: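 Universal all-10-mer Agilent arrays, double-stranded by primer extension on fresh or once-stripped slides, were probed with about 100-200 nM GST-tagged yeast transcription factors made by PURExpress. Fluorescent anti-GST detected bound protein, and masliner normalised the scans. E-scores from the Universal PBM Analysis Suite were given to each ungapped eight-base word pooled with its reverse complement.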

Sequence	PBM E-score
TTAATCAA	0.199
AACTTACG	-0.0399
CAGGAAAC	0.195
CAAAAGCA	0.0445
GTGAAAAC	0.132
AGCGAAGC	-0.136
AAGTTGAC	0.0314
CATCACCC	0.05
ACAGCGCT	0.155
GGAGCAAC	-0.0625
GGGAAACC	0.167
AAATCCGG	0.148
GAACCGAA	0.162
ACGGGGAA	-0.0935
AAACCAGA	-0.0763
ACAGATGA	-0.00923
AACACCCT	-0.0954
GCGTGGCC	-0.0913
ATTGGTAA	0.257
AGCGATGC	-0.25
CTCGAGCA	0.115
CGGCCTTA	0.0808
ACAAGTGC	-0.0973
AGAATCAT	-0.0772
CTTCATCC	-0.0685

Sequence	PBM E-score
ACACATAC	0.0668
AAAGTGGT	0.00758
ATCAAGCC	-0.0325
TCATAAAA	0.0335
CCGCGGGC	0.0272
CTAAATGA	-0.0381
AAGCCCTC	-0.125
ACTTGAAG	-0.0331
ATTCATCG	0.0965
CGTGCCGC	0.0565
ACACTGAG	-0.0275
ATCTCTGA	-0.103
CCTAACCG	-0.199
CAAAACGG	0.0792
GCTCTTCC	-0.288
AAACCGAC	0.0769
AATCCGAT	0.25
CAGAAACA	0.0904
GCAAACTA	0.0959
ACACCTAA	0.0123
AGCGGTTC	-0.0532
ACGGAATG	-0.0518
GGACTGAA	0.0584
CCAGTGTC	-0.0693
TATACTAA	0.107

Sequence	PBM E-score
ATATTCGG	0.105
ATTTACGC	0.0764
GGCGGCCA	-0.00265
GGCGCCAA	0.184
CGTCAGTC	-0.0681
AAGTTTCA	0.0901
CGCACACA	0.147
GCTTGCTA	-0.164
AGTTGAGA	-0.0203
CTGATAAA	0.221
CCCGACCC	0.0469
ACTATATA	0.251
ACCGAGTC	-0.128
ACCGACAG	-0.0239
CATGCTAC	-0.0487
AGGCCCAG	-0.257
GATAGCCA	-0.048
AGACGATC	-0.248
ACTGGGAC	-0.157
CCGGAGTA	-0.012
CTGCGTTC	0.209
CATACCAA	0.118
GCACAGAA	0.136
GCACAGCA	0.092
AACAACGT	-0.0218

Sequence	PBM E-score
GGACCGTA	-0.0371
ATCGTCTG	0.014
CCCGCGGG	0.0407
ACGTGCCA	-0.102
CTGTGAAA	0.223
ATAGTTCG	0.0707
CAGGCTAG	-0.315
ACGCACGA	0.136
CGTGTCAG	0.159
AAATTCCT	-0.0708
GAAACTAC	0.0571
CCTCCAGC	-0.212
ATATACAT	0.203
GAACACTA	0.0513
ATTGTTTA	0.105
AGGTATTG	-0.00837
ACGACCTC	0.174
CATTGTAG	-0.177
CTTGTTCC	0.0689
TAACAGTA	0.0391
CGCTACGA	0.0101
CGTGCCCC	-0.194
CTCGAACC	-0.0891
CACAGGAG	0.0278
CTGTGTGC	0.0184

Sequence	PBM E-score
GCGAGCTA	-0.0885
AGAGTAAA	0.0241
ACAGTCAA	-0.0099
ACGTTACT	0.126
CATTGTCG	0.0864
TCAAAGCA	0.0625
AACACAAA	0.0737
ATGCGTCC	0.0398
ATAGTAAC	0.104
GGACGCAA	-0.0312
GCGTAGAC	-0.188
CTGTTACC	-0.0993
TATTCCAA	-0.0108
TCGACCAA	-0.0605
GTGGCGTA	-0.043
CATTCTTA	0.0549
AGGAACTG	-0.0975
ACCGCCAA	0.0134
ACCGGCGC	0.0124
ATGTTGTG	0.161
GACGAGCA	0.105
ACGACAGA	-0.0321
GTGGAATA	0.0376
ACTCCGCG	0.154
CATGCTGG	0.0485

Sequence	PBM E-score
CTCTGATC	-0.105
ATCCAAGA	-0.0169
CGCCAAAA	0.249
ACTTCGAC	-0.0628
TGAGATAA	0.144
ACCGGGAG	-0.293
ATGTCTCC	0.0278
TAACACTA	0.265
ACCAAAAC	-0.0311
GAATATCA	0.00591
CGTGAAGA	0.0475
CTGGACGC	0.069
GGACCGGA	-0.00547
AGGACCGG	-0.292
CAGATCCC	-0.0463
ATAAGATC	0.0938
CACAACCG	0.0424
GGCAGCCA	0.0785
CCTTCTTA	-0.116
GCTCTAGA	-0.148
ATGGACGA	0.0504
CTACTTGA	-0.0186
ATGTGGAC	0.0413
ACTACCCA	0.0426
CCTGCGGC	-0.206

Taken from above.
PBM E-score, CACAACCG reads 0.0424
PBM E-score, GGCAGCCA reads 0.0785
PBM E-score, CTCTGATC reads -0.105
PBM E-score, GAATATCA reads 0.00591
PBM E-score, CGTGAAGA reads 0.0475
PBM E-score, TAACACTA reads 0.265
PBM E-score, GCTCTAGA reads -0.148

(list continues)

Sequence	PBM E-score
AAACCACC	-0.138
AGAAGATC	-0.0448
CCCCGGGA	-0.157
CCAGTGCA	-0.101
CCGAGCTC	0.0766
AGCAACAT	-0.0115
GGACTAAC	-0.101
CAGTCGAG	-0.191
ACATAAAT	0.207
AGGTCATA	-0.0143
GCCCCACC	-0.024
CAATCCGA	0.0394
AGTGGCCC	-0.0492
AGCCTAAC	-0.0147
AAAGAATG	0.14
GACCTGGA	-0.194
AACCTCCT	-0.0565
CCGTGCTC	0.0988
CCTCTGAA	-0.227
GGTATGAC	0.00686
ATATGTTC	0.101
CCTCGTCC	-0.0777
TTACAAAA	0.242
ATAATCAC	0.238
AAGCCGAT	0.085

Sequence	PBM E-score
GGCCCAGA	-0.232
ACCCGTCA	-0.216
AGTGCAAA	0.228
CACGCTCG	0.038
CTTTGTTA	0.222
AGCGCCCC	-0.415
CTTGAGGA	-0.0583
ATTATGAC	0.0787
CGGGACCC	-0.273
AATGGGAC	-0.146
CACGATCG	0.0389
CAACATAA	0.255
CAAATCGG	0.0936
GTGAGCAC	-0.0607
CAGGTGCA	-0.0586
CTTTCAAC	-0.00761
AACCTTGC	-0.101
CCTCAGGC	-0.0549
ACCCTTAC	0.0397
CGATAAAA	0.205
AAGACCGG	-0.187
GTCGTCCA	-0.0199
ACATATGA	0.145
CGGACTCC	0.0562
AGGGTTAG	-0.153

Sequence	PBM E-score
GGGCGACC	-0.0554
GCGGAACA	0.117
CAGCTAGG	-0.203
CACGTCTG	0.134
ACGTCACA	0.0772
CGATATAG	0.1
CGGTGAAC	0.0875
CAACTGCA	0.086
AAATACAC	0.151
CTCTTCAG	-0.148
AGGCGCTG	0.027
ATGTTCAC	0.0431
CCGACATC	0.0286
GCCGTTTA	0.0175
CCTACGGA	-0.328
CGTTTGTA	0.0518
GAAGTGGC	-0.143
ATTCCAGA	0.0307
CATGGGGA	-0.19
